# PubChem BioAssay AID720505 – Drosophila RNAi Screening Center – 2013
# Test: 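Genes needed for store-operated calcium entry in fly cells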 (primary screen)
# System: Drosophila S2R+ cells
# Knock-down reagent: long dsRNA against Drosophila genes
# Conditions: thapsigargin (2 µM) in calcium-free buffer to empty internal stores, then 2 mM calcium added back
# Detection: 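Fluo-4 signal in 384-well plates read on a FLIPR after thapsigargin (2 µM, calcium-free) store depletion and 2 mM calcium add-back; unnormalised mean endpoint per well; screen run twice, selected wells retested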
# Reading the numbers: calcium signal and retest calcium signal: higher = more calcium entry after store depletion
# Active means: 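About 1500 genes called as lowering calcium entry, by varying amounts, judged against per-plate control wells with STIM1 as positive and Rho1 as negative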
# Meaning of the calls: active = called as lowering calcium entry; inactive = not called
# The screen tested about 20,000 reagents; shown is an unselected part of those that have a named target and a result. Over the whole deposit, about 2,100 (10%) were called active. 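Raw plate signals without normalisation; calls rest on control-based scores that were not deposited; replicate 2 separates called from uncalled poorly.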 Names joined by + are all predicted targets of the reagent. No sequences are given here. Not stated in the record: the amount of reagent, the time to read-out.
Target gene,DRSC id,"calcium signal, replicate 1","calcium signal, replicate 2","retest calcium signal, replicate 1","retest calcium signal, replicate 2",Outcome
CG7149,DRSC03016,124,216,,,inactive
Sems (Seminase),DRSC11626,101,150,,,inactive
Osi15 (Osiris 15),DRSC12178,107,108,,,inactive
Cks30A (Cyclin-dependent kinase subunit 30A),DRSC03292,82.1,99.8,,,inactive
CG3795,DRSC18593,76.8,117,,,inactive
CG16762,DRSC08493,127,139,,,inactive
Arc42 (Activator-recruited cofactor subunit 42),DRSC14340,162,161,,,inactive
Arc42 (Activator-recruited cofactor subunit 42),DRSC15627,185,179,,,inactive
scu (scully),DRSC20369,108,152,,,inactive
CG31777,DRSC00201,84,115,,,inactive
CG6026,DRSC15950,118,122,,,inactive
CG13039,DRSC09920,68.4,104,,,inactive
Hel89B (Helicase 89B),DRSC16700,209,183,134,93.7,inactive
Hel89B (Helicase 89B),DRSC21575,169,95.2,,,inactive
muc (midline uncoordinated),DRSC02832,159,75.2,,,inactive
muc (midline uncoordinated),DRSC21940,98.6,193,,,inactive
hep (hemipterous),DRSC19839,135,93.8,,,inactive
hep (hemipterous),DRSC20337,126,90.3,,,inactive
Pkn (Protein kinase N),DRSC06809,127,127,,,inactive
Pkn (Protein kinase N),DRSC06810,131,117,,,inactive
beat-IIIc (beaten path IIIc),DRSC02438,99.7,126,,,inactive
beat-IIIc (beaten path IIIc),DRSC02949,130,207,,,inactive
Syngr (Synaptogyrin),DRSC06003,98.9,160,,,inactive
CG11294,DRSC17777,215,73.2,,,inactive
Oga (O-GlcNAcase),DRSC15901,207,301,,,inactive
Dhdds (Dehydrodolichyl diphosphate synthase subunit),DRSC17756,132,88.6,,,inactive
CheA29a (Chemosensory protein A 29a),DRSC21486,183,116,,,inactive
hd (humpty dumpty),DRSC12316,108,139,,,inactive
GM130 (Golgi matrix protein 130 kD),DRSC04617,134,126,,,inactive
CG11155,DRSC17205,102,156,,,inactive
snoRNA:Me28S-A982b + Uhg4 + snoRNA:Me28S-G3255a + 1 more,DRSC05143,78.5,88.9,,,inactive

Copied from the list.
Under “calcium signal, replicate 2”, Cks30A (Cyclin-dependent kinase subunit 30A) [DRSC03292] is entered as 99.8
Entry for Syngr (Synaptogyrin) [DRSC06003] in “calcium signal, replicate 1”: 98.9
For “Outcome”, Dhdds (Dehydrodolichyl diphosphate synthase subunit) [DRSC17756] shows inactive
Value for CG11294 [DRSC17777] under “Outcome”: inactive
Result of Pkn (Protein kinase N) [DRSC06810] in “calcium signal, replicate 2”: 117
Under “calcium signal, replicate 1”, muc (midline uncoordinated) [DRSC02832] reads 159

The listing continues.
Target gene,DRSC id,"calcium signal, replicate 1","calcium signal, replicate 2","retest calcium signal, replicate 1","retest calcium signal, replicate 2",Outcome
Rab4 + CG42239,DRSC05667,132,89,,,inactive
CG31698,DRSC22226,110,199,,,inactive
Membrin,DRSC10448,121,86.5,,,inactive
Fdh (Formaldehyde dehydrogenase),DRSC16670,89.1,129,,,inactive
CG15369,DRSC18041,82.9,95,,,inactive
CCDC53 (Coiled-coil domain containing 53),DRSC03056,118,141,,,inactive
Eig71Ed (Ecdysone-induced gene 71Ed),DRSC11151,75,110,,,inactive
tobi (target of brain insulin),DRSC14435,287,113,,,inactive
CG30002,DRSC05182,135,154,,,inactive
js (jiangshi),DRSC15004,141,157,,,inactive
Sox100B,DRSC15090,82.5,148,,,active
Sox100B,DRSC16866,181,122,,,inactive
l(3)73Ah (lethal (3) 73Ah),DRSC11359,83,168,,,inactive
CG2865,DRSC18527,111,197,,,inactive
CG2865,DRSC18528,111,204,,,inactive
Bem46,DRSC00275,97.4,91.5,,,inactive
eater,DRSC15969,148,121,7329,139,inactive
eater,DRSC22254,89,121,,,inactive
CG5800,DRSC19962,89.9,78.3,,,inactive
sens (senseless),DRSC09263,,,,,inactive
sens (senseless),DRSC23086,93.7,92.4,,,inactive
tHMG2 (testis-enriched HMG-box-containing protein 2),DRSC16182,164,176,,,inactive
CG3744,DRSC15511,115,105,,,inactive
CG1544,DRSC15036,89,107,,,inactive
Den1 (Deneddylase 1),DRSC07195,145,185,,,inactive
CG30375,DRSC06834,158,97,,,inactive
CG11837,DRSC14397,60,87.1,,,active
Ekar (Eye-enriched kainate receptor),DRSC17161,134,195,,,inactive
"Arpc1 (Actin-related protein 2/3 complex, subunit 1)",DRSC03438,99.8,129,,,inactive
lbk (lambik),DRSC07178,201,156,,,inactive
APC4 (Anaphase Promoting Complex subunit 4),DRSC18360,186,99.1,,,inactive
pippin,DRSC04489,99.9,85.6,,,inactive
CG12115,DRSC17811,55.8,91.9,,,inactive
CG13527,DRSC04169,114,151,,,inactive
ERR (estrogen-related receptor),DRSC10840,120,112,,,inactive
CG7906,DRSC10928,82.5,123,,,inactive
RpLP1 (Ribosomal protein LP1),DRSC00783,210,94.7,,,inactive
RpLP1 (Ribosomal protein LP1),DRSC22145,68.5,93.2,,,active
CG6602,DRSC10673,76.9,65.8,,,inactive
CG9609,DRSC20199,110,105,,,inactive
CG4678,DRSC19911,113,127,,,inactive
CG4678,DRSC19912,89.3,143,,,inactive
CG2975,DRSC00556,191,159,,,inactive
"Arpc3A (Actin-related protein 2/3 complex, subunit 3A)",DRSC15596,135,151,,,inactive
CheB93b (Chemosensory protein B 93b),DRSC21762,198,106,,,inactive
Dronc (Death regulator Nedd2-like caspase),DRSC11231,83.9,73.4,,,inactive
CG16787,DRSC04282,108,194,,,inactive
Gr5a (Gustatory receptor 5a),DRSC18085,121,129,,,inactive
CG34337,DRSC18435,231,99.7,,,inactive
CG13344,DRSC06378,145,160,,,inactive
LManVI (Lysosomal alpha-mannosidase VI),DRSC03224,61.4,86.8,,,active
CG32588,DRSC22285,87.1,197,,,inactive
